# PubChem BioAssay AID504327 (National Center for Advancing Translational Sciences (NCATS), 2011)
# Protein sequences, listed by entry. Tags and fused reporters are not part of them.
# UniProt Q92830, whole entry, looked up: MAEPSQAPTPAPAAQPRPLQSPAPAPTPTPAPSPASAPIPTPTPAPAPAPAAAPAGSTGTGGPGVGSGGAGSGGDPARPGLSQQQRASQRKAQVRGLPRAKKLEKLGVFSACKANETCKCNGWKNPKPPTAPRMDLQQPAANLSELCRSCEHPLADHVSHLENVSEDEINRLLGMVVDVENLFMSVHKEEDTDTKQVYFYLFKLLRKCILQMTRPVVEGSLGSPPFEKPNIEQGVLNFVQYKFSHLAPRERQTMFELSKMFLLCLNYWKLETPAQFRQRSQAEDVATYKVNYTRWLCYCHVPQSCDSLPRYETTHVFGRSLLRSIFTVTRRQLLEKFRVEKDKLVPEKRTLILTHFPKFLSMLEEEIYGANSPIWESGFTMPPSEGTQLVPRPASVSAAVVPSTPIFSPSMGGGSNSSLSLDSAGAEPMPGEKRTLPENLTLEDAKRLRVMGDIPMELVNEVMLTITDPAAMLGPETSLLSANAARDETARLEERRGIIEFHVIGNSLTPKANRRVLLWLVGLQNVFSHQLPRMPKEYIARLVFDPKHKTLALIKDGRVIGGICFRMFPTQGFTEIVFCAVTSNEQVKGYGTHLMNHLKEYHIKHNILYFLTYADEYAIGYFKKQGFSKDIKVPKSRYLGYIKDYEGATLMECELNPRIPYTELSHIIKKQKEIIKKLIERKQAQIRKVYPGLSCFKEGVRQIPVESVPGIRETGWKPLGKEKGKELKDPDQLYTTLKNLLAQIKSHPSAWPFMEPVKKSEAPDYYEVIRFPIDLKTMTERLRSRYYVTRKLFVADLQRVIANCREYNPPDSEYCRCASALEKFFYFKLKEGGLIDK
# Hit rate of the full screen: of about 390,000 compounds, about 820 (0.21%) were called active. Inconclusive results, whose numbers are uncertain, are shown with a selection of clear calls. Calls follow the shape of the dose curve; as a rule, active = well fitted inhibition curve with a large enough effect; inconclusive = small, poorly fitted or top-dose-only effect, or another doubt; inactive = no such curve, though single readings can be large or run the other way. Potencies of inconclusive entries are doubtful fits and often do not repeat.
# Biological target: Histone acetyltransferase KAT2A (Homo sapiens) (UniProt Q92830)
# Assay: qHTS Assay for Inhibitors of GCN5L2
# Conditions: GCN5L2 HAT assay, ThioGlo1 CoA-SH fluorescence; activity change, negative = inhibition: at 58.9 µM (top of the series) unless noted
# Outline: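 GCN5L2 (20nM final) in 50mM HEPES, 0.1mM EDTA pH 7.5, 0.01% Tween-20 was preincubated 15 min at room temperature with compound, then given ThioGlo1 (50uM), H3(1-25) peptide (75uM) and acetyl-CoA (70uM); CoA-thiol fluorescence (Ex340/Em540) was read at 0 and 20 min.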
# % is scaled to controls: 0 for no effect and ±100 for the full control effect; potency is read from the fitted curve at half-maximal effect.
SMILES,Potency,"activity change, negative = inhibition"
CC1CCCC(NC(=O)CCCn2c(=O)[nH]c3cc(Cl)ccc3c2=O)C1C (stereo not given),"inconclusive: 39.8 µM [inhibitor, single point]",–
CCN(CC)c1ccc(NC(=O)CN2CCN(c3ccc(F)cc3)CC2)cc1,–,inactive: -0.565%
Cc1c(C(=O)Nc2cccc(C(F)(F)F)c2)oc2ccc(S(=O)(=O)N3CCOCC3)cc12,"inconclusive: 39.8 µM [inhibitor, single point]",–
COC(=O)c1sc(-c2ccc(C(C)(C)C)cc2)cc1NC(=O)c1ccccc1C(=O)O,"inconclusive: 20 µM [inhibitor, single point]",–
COc1ccc(C2C=C(c3ccc(Br)s3)Nc3ncnn32)cc1OC (stereo not given),"inconclusive: 22.4 µM [inhibitor, partial curve, poor fit]",–
Cc1ccc(N2C(=O)C(Cl)=C(Nc3c(C)n(C)n(-c4ccccc4)c3=O)C2=O)cc1,–,inactive: -4.5%
O=C(O)c1cccc(CSc2nnc(-c3ccc(Cl)cc3)o2)c1,–,inactive: -7.97%
Cn1c(=O)c2cc(C(=O)NC3CCCCCC3)sc2c2ccccc21,"inconclusive: 39.8 µM [inhibitor, single point]",–
COc1cc2c(cc1OC)C(COc1ccc(F)cc1)N(C(=O)c1cccc(F)c1)CC2 (stereo not given),–,inactive: -3.99%
COc1cc(NC(=O)c2ccnnc2)cc(C(=O)Nc2cccc(C(F)(F)F)c2)c1,"inconclusive: 7.94 µM [inhibitor, single point]",–
CCCOc1ccc(C2NC(=S)NC(c3ccccc3)=C2C(=O)Nc2ccc(C)cc2)cc1OC (stereo not given),"inconclusive: 2.24 µM [inhibitor, partial curve]",–
O=c1oc2cc(O)ccc2cc1-c1ccccc1,"inconclusive: 39.8 µM [inhibitor, single point]",–
CCCc1[nH]nc2c1C(CCC)C(C#N)=C(N)O2 (stereo not given),–,inactive: -3.67%
Cn1cc(CNC(=O)c2cc(-c3ccccc3)nc3ccc(Br)cc23)cn1,–,inactive: 2.22%
O=C1NC(CCc2ccccc2)C(=O)N1Cc1cccc2ccccc12 (stereo not given),"inconclusive: 12.6 µM [inhibitor, single point]",–
Cc1ccc(NS(=O)(=O)c2ccc3c(c2)NC(=O)C(C)C(=O)N3)c(Br)c1 (stereo not given),"inconclusive: 0.891 µM [inhibitor, full curve, poor fit]",–
COc1ccc2cc(C(c3nnnn3Cc3ccc(F)cc3)N3CCCCCC3)c(=O)[nH]c2c1 (stereo not given),"inconclusive: 39.8 µM [inhibitor, single point]",–
COc1ccc(-c2nc3cccc(C)n3c2NCc2ccco2)cc1OC,"inconclusive: 35.5 µM [inhibitor, single point]",–
COc1cccc(CNC(=O)CCc2c(C)c3ccc(O)c(C)c3oc2=O)c1,"inconclusive: 28.2 µM [inhibitor, partial curve]",–
Cc1ccc(/C=C2/SC(=O)NC2=S)o1,"inconclusive: 25.1 µM [inhibitor, single point]",–
CN1C(=O)c2[nH]nc(-c3ccc(F)cc3)c2C1c1cccc(O)c1 (stereo not given),–,inactive: -3.79%
CCCc1nnc(NC(=O)C(CC)OC(=O)c2cc(C)nc3ccccc23)s1 (stereo not given),"inconclusive: 6.31 µM [inhibitor, single point]",–
COc1cc(/C=C2\SC(N)=NC2=O)cc(Br)c1O,"inconclusive: 31.6 µM [inhibitor, single point]",–
CCOC(=O)c1sc(NC(=O)CNCc2cccnc2)c(C(=O)OCC)c1C,–,inactive: -1.02%

# Single records, as listed above. Order of values: Potency	activity change, negative = inhibition
# `Cc1ccc(N2C(=O)C(Cl)=C(Nc3c(C)n(C)n(-c4ccccc4)c3=O)C2=O)cc1` in the list: –	inactive: -4.5%
# `COc1cc(NC(=O)c2ccnnc2)cc(C(=O)Nc2cccc(C(F)(F)F)c2)c1` in the list: inconclusive: 7.94 µM [inhibitor, single point]	–
# `Cc1ccc(/C=C2/SC(=O)NC2=S)o1` in the list: inconclusive: 25.1 µM [inhibitor, single point]	–

# Additional compounds follow:

SMILES,Potency,"activity change, negative = inhibition"
Cc1ccc(-c2nn(-c3ccccc3)cc2CN(Cc2ccccc2)C(=O)c2ccco2)o1,–,inactive: -8.99%
CCN(CC)S(=O)(=O)c1ccc2[nH]c(=O)cc(C(=O)Nc3ccc(C)c(S(=O)(=O)N(CC)CC)c3)c2c1,–,inactive: -11.1%
O=C(Nc1nc2c(Br)cccc2s1)C1CC1,"inconclusive: 0.631 µM [inhibitor, partial curve, poor fit]",–
O=C(COC(=O)c1cccc(-n2cnnn2)c1)Nc1c(Cl)cccc1C(F)(F)F,"inconclusive: 2.82 µM [inhibitor, full curve, poor fit]",–
CCOC(=O)c1[nH]c2cc(OC)c(OC)cc2c1NC(=O)CCN1CCSCC1,"inconclusive: 10 µM [inhibitor, partial curve]",–
COC(=O)c1c(-c2cccs2)csc1NC(=O)c1cc(OC)cc(OC)c1,"inconclusive: 31.6 µM [inhibitor, single point]",–
c1ccn2c(c1)nc1c2nc2ccccn21,"inconclusive: 28.2 µM [inhibitor, single point]",–
COc1ccc(NC(=O)CSc2nc3ccsc3c(=O)n2CCCCCC(=O)O)cc1,–,inactive: -6.4%
O=[N+]([O-])c1ccc(N2CCN(C(=S)NCc3ccc(Cl)cc3)CC2)cc1,–,inactive: -4.6%
COc1ccc(C(=O)N2CCC3(CCCN(Cc4cc(C(F)(F)F)cc(C(F)(F)F)c4)C3)CC2)cc1,"inconclusive: 28.2 µM [inhibitor, single point]",–
Cc1ccc(/C=C/C(=O)c2c(C)nc3ccccn23)cc1,"inconclusive: 0.891 µM [inhibitor, single point]",–
CC(C)N1CCc2c(sc(N)c2C#N)C1,–,inactive: -8.02%
O=C(C1=NN(c2ccccc2)C2C(=O)N(c3ccc(Cl)cc3)C(=O)C12)c1ccccc1 (stereo not given),–,inactive: -6.04%
O=C1c2cc(Br)ccc2N(Cc2ccc(Br)cc2)S(=O)(=O)C1c1cc(Cl)c(Cl)cc1[N+](=O)[O-] (stereo not given),"inconclusive: 20 µM [inhibitor, partial curve]",–
Cc1cccc(Nc2ccccc2C(=O)OCC(=O)N2CCOCC2)c1C,"inconclusive: 0.708 µM [inhibitor, single point]",–
COc1ccc(NS(=O)(=O)c2cc(NC(=O)CC3CCCC3)ccc2N2CCOCC2)cc1,–,inactive: -15.9%
CC1CCCN(C(=O)Cn2nnc(-c3ccc(N(C)C)cc3)n2)C1 (stereo not given),"inconclusive: 7.08 µM [inhibitor, full curve]",–
O=C(CNC(=O)N1CC(=O)Nc2ccccc21)NCc1ccccc1,"inconclusive: 0.224 µM [inhibitor, full curve, poor fit]",–
O=C(CCCCCN1C(=O)CCC1=O)Nc1ccc(Cl)c(C(F)(F)F)c1,"inconclusive: 3.55 µM [inhibitor, partial curve]",–
Cc1ccccc1NC(=S)N(CCN(C)C)C(C)c1ccccn1 (stereo not given),–,inactive: -9.53%
Cc1c(C(=O)N/N=C/c2cccc(O)c2)nnn1-c1nonc1N,"inconclusive: 11.2 µM [inhibitor, partial curve, poor fit]",–
CN(C)c1ccc(/C=N/NC(=O)CN(c2ccccc2Cl)S(C)(=O)=O)cc1Br,"inconclusive: 12.6 µM [inhibitor, partial curve]",–
COc1ccc(C(=O)NC2CC2)cc1OC1CCN(Cc2cnn(C)c2C)CC1,"inconclusive: 0.1 µM [inhibitor, full curve, poor fit]",–
CCOC(=O)c1cc(-c2ccc3c(c2)OCCO3)nc2c1c(C)nn2CCC#N,"inconclusive: 39.8 µM [inhibitor, single point]",–

SMILES,Potency,"activity change, negative = inhibition"
O=C(Nc1ccccc1)c1ccc(S(=O)(=O)NCc2ccco2)cc1,–,inactive: 2.54%
CCN1C(=NCCc2cccnc2)N[C@@H](c2ccccc2)[C@H](C(=O)OC)[C@H]1C,"inconclusive: 39.8 µM [inhibitor, single point]",–
Cc1cc(C(=O)CSc2nc3ccccc3c(=O)n2C)c(C)n1CC1CCCO1 (stereo not given),–,inactive: -1.21%
CCOC(=O)CSc1nnc(C)c(=O)[nH]1,–,inactive: -1.73%
c1coc(-c2nn3c(-c4ccco4)nnc3s2)c1,–,inactive: -6.64%
CC(=O)Nc1ccc(N/C=C/C(=O)c2ccc(Cl)cc2)cc1,–,inactive: -8.32%
CCN(C(=O)CSc1n[nH]c(-c2cccs2)n1)C1CCS(=O)(=O)C1 (stereo not given),"inconclusive: 39.8 µM [inhibitor, single point]",–
COc1cccc(Cn2c(=O)c(-c3ccc(Cl)cc3)nc3cnc(N(C)C)nc32)c1,–,inactive: -8.65%
CCN(C(=O)Cn1nc(Cc2cccnc2)c2ccccc2c1=O)c1cc(C)ccc1C,–,inactive: -8.09%
O=C(c1ccccc1)C1CN(c2ccccc2)CC1c1ccc(Cl)cc1 (stereo not given),–,inactive: -6.53%
O=C(NCc1ccccn1)c1ccc(=O)oc1,–,inactive: -5.64%
Cc1ccc(NC(=O)CSc2nnc(-c3cc4occc4n3C)n2-c2ccccc2C)cc1F,–,inactive: -13.2%
COC(=O)c1ccccc1NC(=O)C(C)n1nc(C)c2c(C)n(-c3ccccc3)nc2c1=O (stereo not given),"inconclusive: 39.8 µM [inhibitor, single point]",–
O=C(Nc1ccc(C(=O)O)cc1)/C(=C\C=C\c1ccccc1)NC(=O)c1ccc(Br)cc1,"inconclusive: 39.8 µM [inhibitor, single point]",–
Cc1ccc(-c2cc(C(=O)NCc3ccco3)c3ccccc3n2)s1,"inconclusive: 25.1 µM [inhibitor, partial curve]",–
CCOc1ccc(C2C(=O)N(C3CCCCCC3)CC(=O)N2Cc2ccc(C)cc2)cc1OC (stereo not given),–,inactive: -3.73%
O=C1CC(N2CCOCC2)C(=O)N1Cc1ccc(N2CCCC2=O)cc1 (stereo not given),–,inactive: 0.766%
O=C(O)CSc1cccc2cccc(C(=O)O)c12,"inconclusive: 39.8 µM [inhibitor, single point]",–
COc1cccc(/C=N/NC(=S)Nc2cccc(C(=O)O)c2)c1O,–,inactive: -16.2%
COc1ccc(C2=NS(=O)(=O)N(C)C(C(=O)NC3CCCCC3)=C2)cc1OC,"inconclusive: 0.112 µM [inhibitor, full curve, poor fit]",–
CN[C@@H]1[C@H](O[C@@H]2O[C@H](C)[C@@](O)(CO)[C@H]2O[C@H]2[C@H](O)[C@H](O)[C@H](N=C(N)N)[C@@H](O)[C@@H]2N=C(N)N)O[C@@H](CO)[C@H](O)[C@H]1O,–,inactive: -4.66%
O=C1CC(c2cccs2)Sc2nc3ccccc3n21 (stereo not given),"inconclusive: 5.62 µM [inhibitor, single point]",–
